Microarray screen: hit calls

Targets, with sequences 5′ to 3′:
T1: PreQ1 riboswitch RNA pseudoknot, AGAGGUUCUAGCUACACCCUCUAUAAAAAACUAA. From B. subtilis. Hit rate about 0.7% of about 24,000 compounds.
T2: TPP riboswitch RNA three-way junction, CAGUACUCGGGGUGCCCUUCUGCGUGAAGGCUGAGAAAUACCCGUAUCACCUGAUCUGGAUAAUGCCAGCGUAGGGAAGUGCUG. Hit rate about 0.7% of about 24,000 compounds.
T3: SAM-II riboswitch RNA pseudoknot, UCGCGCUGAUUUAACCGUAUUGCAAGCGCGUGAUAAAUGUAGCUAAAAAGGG. Hit rate about 1% of about 21,000 compounds.

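Each compound is printed as two spots on a slide made to bind it covalently, so it has no test concentration; the read-out is fluorescence of the bound, labelled oligonucleotide. The data file lists only calls. An earlier report of the laboratory on the PreQ1, TPP and SAM-II riboswitches (doi:10.1038/s41467-019-09493-3) used 1 µM RNA for 2 h and required a mean Z-score above 3 (spot signal-to-noise against the whole library), a score well above that on a control array, and duplicate spots agreeing (coefficient of variation under 100); it then also set aside compounds that hit other targets, which this list keeps. The cut-offs behind this list may differ. The calls come from the array alone, and fixing a compound to the slide can hide its binding.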
“active” means called a hit, “inactive” means screened and not called a hit.
This is an unselected part of the compounds tested.
A target missing from an entry has no call listed here.
A dash means that no call is listed here.

With CCOC(=O)N1CCN(CC(O)COCc2ccc3c(c2)OCO3)CC1 (stereo unspecified) the screen gave T1: inactive; T2: inactive; T3: inactive. COc1ccc(-c2nc3nc(C)cc(Nc4ccc(F)cc4)n3n2)cc1 was scored T1: inactive; T2: inactive. For Cc1ccc(CN2c3ccccc3C3=C(C(c4ccccc4)C(C#N)=C(N)O3)S2(=O)=O)cc1 (stereo unspecified) the calls were T1: inactive; T2: inactive. O=S(=O)(c1ccccc1)c1nc(-c2ccccc2)oc1NCC1CCCO1 (stereo unspecified) was scored T1: inactive; T2: inactive. With O=C(c1ccccc1)C1C(c2ccccc2)C1[N+](=O)[O-] (stereo unspecified) the screen gave T1: inactive; T2: inactive; T3: inactive. With Cc1ccc(Nc2n[nH]c(=S)s2)cc1F the screen gave T1: inactive; T2: inactive; T3: inactive.

With COC(=O)c1cccc(Nc2cc(-c3ccc(OC)cc3)nc(C)n2)c1 the screen gave T1: inactive; T2: inactive. Cc1c(NCc2ccccn2)cccc1C(=O)N[C@@H]1C[C@H]2CC[C@@H]1C2 was scored T1: inactive; T2: inactive; T3: inactive. Calls for O=C(O)CC(C(=O)O)C(O)c1ccccc1 (stereo unspecified) are T1: inactive; T2: inactive; T3: inactive. CCOC(=O)c1c(N)ssc1=S was scored T1: inactive; T2: inactive; T3: inactive. With CCc1ccc(-n2nc(CO)c(C(=O)NCc3ccc(C)cc3)n2)cc1 the screen gave T1: inactive; T2: inactive. Calls for Cc1ccc(Nc2nc(-c3ccccc3)cs2)cc1C are T1: inactive; T2: inactive; T3: inactive.

Calls for Cc1nccn1CCN(C)C(=O)c1ccccc1C1CCNC1 (stereo unspecified) are T1: inactive; T2: inactive; T3: inactive. With CCOc1ccccc1Nc1ncnc2ccccc12 the screen gave T1: inactive; T2: inactive; T3: inactive. With O=C1C=C(NC2CC2)C2(CCCCC2)O1 the screen gave T1: inactive; T2: inactive; T3: inactive. With CC1CCCCN1CCCNc1nc2ccccc2c2nc(-c3ccccc3)nn12 (stereo unspecified) the screen gave T1: inactive; T2: inactive. Calls for COc1cc(C2C(C#N)=C(N)OC3=C2C(=O)CCC3)cc(OC)c1O (stereo unspecified) are T1: inactive; T2: inactive; T3: inactive. With O=C1CC(N2CCN(CCO)CC2)C(=O)N1c1ccc(F)cc1 (stereo unspecified) the screen gave T1: inactive; T2: inactive; T3: inactive.

Cn1c(=O)c([N+](=O)[O-])c(NCCCO)c2ccccc21 was scored T1: inactive; T2: inactive; T3: inactive. For CCc1c(C)nc2nc(C)nn2c1Nc1ccc(Cl)cc1 the calls were T1: inactive; T2: inactive; T3: inactive. With CC(C)(C)n1cnc2cc(NCc3cccc(Br)c3)ccc21 the screen gave T1: inactive; T2: inactive; T3: inactive. For CCOC(=O)c1sc2nc(N3CCOCC3)c3c(c2c1N)CC(C(C)C)OC3 (stereo unspecified) the calls were T1: inactive; T2: inactive; T3: inactive. Calls for COc1ccc(-c2c(C)nc3nc(C(F)(F)F)nn3c2N)cc1 are T1: inactive; T2: inactive. With CCOc1ccc(CNCCc2ccc(F)cc2)cc1 the screen gave T1: inactive; T2: inactive; T3: inactive.

With Cc1c(Cl)cccc1N1C(N)=C(C#N)C(c2ccsc2)C2=C1CCCC2=O (stereo unspecified) the screen gave T1: inactive; T2: inactive; T3: inactive. Calls for N=c1n(CCN2CCCCC2)c2ccccc2n1CC(O)c1cccs1 (stereo unspecified) are T1: inactive; T2: inactive; T3: inactive. OCC#Cc1csc(-c2nccn2[C@H]2CCc3ccccc32)c1 was scored T1: inactive; T2: inactive; T3: inactive. Calls for O=C1CC(Nc2ccccc2)C=C1Nc1ccccc1 (stereo unspecified) are T1: inactive; T2: inactive; T3: inactive. Calls for Nc1c(N2CCCCCC2)cc(O)c2c1C(=O)c1ccccc1C2=O are T1: inactive; T2: inactive; T3: inactive. With CN(C)c1nc(NC(CO)Cc2ccc(Cl)cc2)ncc1F (stereo unspecified) the screen gave T1: inactive; T2: inactive; T3: inactive.

Cc1cc(NC(C)C)n2nc(-c3cccc(Cl)c3)c(C)c2n1 was scored T1: inactive; T2: inactive. For O=c1c2ccccc2c(=O)c2c1c(NCCO)cc1oc3ccccc3[nH]c12 the calls were T1: inactive; T2: inactive; T3: inactive. Calls for COC(=O)c1ccc(NCN2C(=O)C3C4CCC(C4)C3C2=O)cc1 (stereo unspecified) are T1: inactive; T2: inactive; T3: inactive.

Once more, the final 3:

compound	T1	T2	T3
Cc1cc(NC(C)C)n2nc(-c3cccc(Cl)c3)c(C)c2n1	inactive	inactive	-
O=c1c2ccccc2c(=O)c2c1c(NCCO)cc1oc3ccccc3[nH]c12	inactive	inactive	inactive
COC(=O)c1ccc(NCN2C(=O)C3C4CCC(C4)C3C2=O)cc1 (stereo unspecified)	inactive	inactive	inactive

From ROBIN, a set of small-molecule microarray screens (doi:10.1002/anie.202211358).